Reference: PubChem BioAssay (NCATS)
This list was built around the results that the source calls inconclusive (neither active nor inactive); the mix of calls is not that of the screen. Where a call stands in place of a potency, no number is given. For part of these data: Potencies beside an inconclusive call are fits to weak or partial responses and may not hold up. The source made the active and inactive calls. Calls follow the shape of the dose curve; as a rule, active = well fitted curve in the direction sought with a large enough effect; inconclusive = small, poorly fitted or top-dose-only effect, or another doubt; inactive = no such curve, though single readings can be large; an effect the other way counts as inactive or inconclusive.

Amino acid sequences for entries named in this document (tags omitted). A change or cut given only in a name is not applied to a line headed by its entry.
UniProt Q96QE3: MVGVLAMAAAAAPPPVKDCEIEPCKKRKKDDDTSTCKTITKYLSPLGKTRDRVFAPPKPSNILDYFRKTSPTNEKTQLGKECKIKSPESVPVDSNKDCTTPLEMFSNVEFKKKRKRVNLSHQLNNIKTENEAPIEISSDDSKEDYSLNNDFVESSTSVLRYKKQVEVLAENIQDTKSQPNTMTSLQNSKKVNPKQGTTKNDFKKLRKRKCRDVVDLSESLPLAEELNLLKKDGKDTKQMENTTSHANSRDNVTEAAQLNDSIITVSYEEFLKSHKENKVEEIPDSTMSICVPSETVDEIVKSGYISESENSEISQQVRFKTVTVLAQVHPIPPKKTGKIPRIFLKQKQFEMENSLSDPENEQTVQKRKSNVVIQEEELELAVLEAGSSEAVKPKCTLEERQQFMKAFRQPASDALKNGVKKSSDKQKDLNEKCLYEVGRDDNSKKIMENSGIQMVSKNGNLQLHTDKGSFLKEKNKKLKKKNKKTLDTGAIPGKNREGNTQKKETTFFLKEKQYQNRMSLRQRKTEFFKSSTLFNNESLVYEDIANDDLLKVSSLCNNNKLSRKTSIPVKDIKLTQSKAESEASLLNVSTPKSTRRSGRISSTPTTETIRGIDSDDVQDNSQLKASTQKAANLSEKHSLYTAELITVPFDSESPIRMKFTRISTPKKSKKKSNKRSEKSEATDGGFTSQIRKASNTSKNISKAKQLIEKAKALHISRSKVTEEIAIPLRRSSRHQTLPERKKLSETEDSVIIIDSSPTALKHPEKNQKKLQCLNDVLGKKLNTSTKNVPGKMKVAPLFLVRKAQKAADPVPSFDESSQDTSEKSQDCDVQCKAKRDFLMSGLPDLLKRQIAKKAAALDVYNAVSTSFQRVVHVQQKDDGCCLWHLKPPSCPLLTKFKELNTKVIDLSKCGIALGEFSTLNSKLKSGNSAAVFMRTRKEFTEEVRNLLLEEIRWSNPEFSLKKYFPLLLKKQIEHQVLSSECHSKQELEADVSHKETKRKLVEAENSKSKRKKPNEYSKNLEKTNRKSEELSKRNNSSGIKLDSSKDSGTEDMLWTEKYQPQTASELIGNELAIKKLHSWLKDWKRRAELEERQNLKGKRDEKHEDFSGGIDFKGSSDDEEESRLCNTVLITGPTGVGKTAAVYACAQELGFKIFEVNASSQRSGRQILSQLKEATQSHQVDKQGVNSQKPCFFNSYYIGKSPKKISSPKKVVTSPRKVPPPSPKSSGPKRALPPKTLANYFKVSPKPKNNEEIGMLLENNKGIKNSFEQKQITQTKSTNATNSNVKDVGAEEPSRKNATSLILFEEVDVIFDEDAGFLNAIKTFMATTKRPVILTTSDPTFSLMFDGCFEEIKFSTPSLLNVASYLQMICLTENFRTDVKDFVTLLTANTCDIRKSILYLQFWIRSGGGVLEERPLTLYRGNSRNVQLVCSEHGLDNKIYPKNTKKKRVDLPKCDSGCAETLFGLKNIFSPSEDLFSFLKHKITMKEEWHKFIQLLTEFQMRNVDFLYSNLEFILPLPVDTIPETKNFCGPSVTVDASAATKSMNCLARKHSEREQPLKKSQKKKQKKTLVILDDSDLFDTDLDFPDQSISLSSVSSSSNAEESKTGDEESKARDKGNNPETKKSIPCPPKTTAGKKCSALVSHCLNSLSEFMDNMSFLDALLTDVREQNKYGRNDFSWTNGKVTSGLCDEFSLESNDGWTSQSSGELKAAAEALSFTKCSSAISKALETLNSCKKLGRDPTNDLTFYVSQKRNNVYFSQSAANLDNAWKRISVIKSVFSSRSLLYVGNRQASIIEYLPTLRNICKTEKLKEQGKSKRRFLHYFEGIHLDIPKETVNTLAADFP

Assays:
[1] = target: Luciferin 4-monooxygenase (Photinus pyralis) (UniProt P08659); assay: qHTS screen for small molecules that inhibit ELG1-dependent DNA repair: Hit Confirmation in Biochemical Luciferin Assay (AID 624253); also: series mostly up to about 57 µM
How it was run: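 Luminescent signal from firefly luciferase acting on its luciferin substrate reagent was recorded with a CCD plate imager after compounds or DMSO had been pinned into the substrate and enzyme added last.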

[2] = target: ATPase family AAA domain-containing protein 5 (Homo sapiens) (UniProt Q96QE3); assay: HTS assay for small molecules that inhibit ELG1-dependent DNA repair in human embryonic kidney (HEK293T) cells expressing luciferase-tagged ELG1: Hit Confirmation (AID 624248); also: nearly all actives have a fitted effect of over 55% in size; also: potency is read from the fitted curve at half-maximal effect
How it was run: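 Cells (2,000/well) received 5-Fluorouridine plus pin-transferred compound or DMSO and were incubated 16 hr at 37 °C, 5% CO2. Luciferase activity was read by ONE-Glo luminescence after 30 min at room temperature; inhibitors suppress the signal.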

[3] = target: ATPase family AAA domain-containing protein 5 (Homo sapiens) (UniProt Q96QE3); assay: qHTS screen for small molecules that inhibit ELG1-dependent DNA repair in human embryonic kidney (HEK293T) cells expressing luciferase-tagged ELG1: Hit Confirmation using MMS Stimulated ELG1 (AID 624249); also: nearly all actives have a fitted effect of over 60% in size; also: potency is read from the fitted curve at half-maximal effect
How it was run: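 Compounds are tested on HEK293T cells expressing ELG1-luc, co-treated with 10 µM MMS (final), for 16 h before luminescence readout with Amplight.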

[4] = qHTS screen for small molecules that inhibit ELG1-dependent DNA repair: Hit Confirmation with 5FU Viability (AID 624250);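 also: viability measured 16 h after compound addition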
How it was run: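 Co-treatment format: ELG1 reporter HEK293T cells exposed to compound together with 5-fluorouridine at 10 µM final for 16 h. CellTiter-Glo luminescence served as the viability measure.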

Row | SMILES | Potency [1] | Potency [2] | Potency [3] | Potency [4]
1 | CN(C)c1ccnc2sc(C(N)=O)c(N)c12 | inactive |  |  | 
2 | O=C(Nc1ccc(F)cc1)N(Cc1cccs1)Cc1cc2cc3c(cc2[nH]c1=O)OCO3 | inactive |  |  | 
3 | Cc1ccc2oc(NC(=O)N3CCOCC3)cc(=O)c2c1 |  | inactive | inactive | inactive
4 | O=C(CC1OC(=O)c2ccccc21)Nc1cc(Cl)ccc1N1CCOCC1 (stereo unspecified) |  | inconclusive: 25 µM [inhibitor, partial curve, poor fit] | inactive | inactive
5 | COc1ccc(CCN(Cc2cccs2)S(=O)(=O)c2ccc(S(=O)(=O)N3CCCCCC3)cc2)cc1OC |  | inconclusive: 2.5 µM [inhibitor, partial curve, poor fit] |  | 
6 | CN(C)S(=O)(=O)c1ccc(NC(=O)c2cc(-c3cccs3)nc3ccccc23)cc1 |  | inconclusive: 7.05 µM [inhibitor, partial curve] | inconclusive: 14.1 µM [inhibitor, partial curve] | 
7 | CN(C)S(=O)(=O)c1cccc(CSCc2cccc(S(=O)(=O)N(C)C)c2)c1 |  | inconclusive: 15.8 µM [inhibitor, single point] | active: 1.12 µM | inactive
8 | CN(CC(=O)Nc1ccccc1Cl)CC(=O)Nc1sc2c(c1C(N)=O)CCC2 |  | active: 15.8 µM | inconclusive: 19.9 µM [inhibitor, partial curve] | inactive
9 | CC(C)(C)c1ccc(C(=O)NNc2ncccc2-n2cccc2)cc1 |  | inactive | inactive | 
10 | COc1ccc(S(=O)(=O)NCCc2nnc3ccc(SCC(=O)Nc4nc(C)cs4)nn23)cc1 |  | inactive | inactive | 

Quoted from the entries so far for reference:
Row | SMILES | Potency [1] | Potency [2] | Potency [3] | Potency [4]
6 | CN(C)S(=O)(=O)c1ccc(NC(=O)c2cc(-c3cccs3)nc3ccccc23)cc1 |  | inconclusive: 7.05 µM [inhibitor, partial curve] | inconclusive: 14.1 µM [inhibitor, partial curve] | 
7 | CN(C)S(=O)(=O)c1cccc(CSCc2cccc(S(=O)(=O)N(C)C)c2)c1 |  | inconclusive: 15.8 µM [inhibitor, single point] | active: 1.12 µM | inactive
